This assay deals with HA-tagged wild-type MAVS (human) (UniProt Q7Z434). The assay can be described thus: co-IP.

Protein sequences, listed by entry. Tags and fused reporters are not part of them.
UniProt Q7Z434: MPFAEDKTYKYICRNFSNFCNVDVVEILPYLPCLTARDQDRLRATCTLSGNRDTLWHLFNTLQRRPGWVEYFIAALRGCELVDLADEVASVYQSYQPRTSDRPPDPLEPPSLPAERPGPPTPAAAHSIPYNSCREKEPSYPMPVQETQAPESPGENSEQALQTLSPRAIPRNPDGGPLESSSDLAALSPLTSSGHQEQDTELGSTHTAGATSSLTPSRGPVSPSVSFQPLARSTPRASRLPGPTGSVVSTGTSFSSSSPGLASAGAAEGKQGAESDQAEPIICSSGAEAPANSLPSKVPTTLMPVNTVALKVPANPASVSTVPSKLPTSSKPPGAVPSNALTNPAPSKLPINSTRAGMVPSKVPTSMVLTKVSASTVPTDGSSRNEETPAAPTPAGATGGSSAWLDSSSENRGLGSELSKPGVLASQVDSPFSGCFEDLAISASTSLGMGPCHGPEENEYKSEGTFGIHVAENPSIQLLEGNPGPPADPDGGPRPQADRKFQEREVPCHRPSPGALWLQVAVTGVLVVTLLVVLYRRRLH
UniProt P03496: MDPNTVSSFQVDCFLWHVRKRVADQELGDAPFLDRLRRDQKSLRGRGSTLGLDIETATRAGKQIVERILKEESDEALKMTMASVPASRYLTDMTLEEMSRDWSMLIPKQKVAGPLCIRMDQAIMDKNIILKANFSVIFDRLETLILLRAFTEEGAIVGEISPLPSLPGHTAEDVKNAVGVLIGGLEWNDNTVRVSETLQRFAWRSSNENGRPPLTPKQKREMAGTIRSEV

The source of these data is PMC8537625.

Results are given in words; binding and its absence hold for the method and conditions named. Binding seen in cells or lysates may run through a third protein. Some results given as binding are weak or reduced against the parent protein; the word gives no strength.

On to “wild-type NS1 (pCAGGS-NS1) (from UniProt P03496 1-230)”, for which the binding result is “binds”.
